Measurements reported in paper PMC11111408, “Concurrent inhibition of oncogenic and wild-type RAS-GTP for cancer therapy” (Nature, 2024).
Further values from the same series stand in other lists.

Tested on: PRISM DNA-barcoded human tumour cell lines
Assay: PRISM pooled cell viability assay;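 also: 8 threefold dilutions from 10 µM with 5 days of exposure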
Type: cell-based
Set-up: Area under the curve (AUC): scale not given here
Method: Cells were then lysed in TCL mRNA lysis buffer, and then PCR with reverse transcription was performed. Detection of the barcodes and univariate and multivariate analysis was then performed as previously described. Data analysis is described in the Supplementary Methods. Up-to-date code for our analysis is at the github link: https://github.com/cmap/dockerized_mts.
For every gene with non-silent mutations in at least four cell-lines, we compared the AUC values between cells with and without those mutations using a t-test. This analysis was carried out for: (i) the full dataset; (ii) excluding cell lines with non-silent KRAS mutations; and (iii) excluding cell lines that have either KRAS or NRAS non-silent mutations.

CCn1c(-c2cc(N3CCN(C4CC4)CC3)cnc2[C@H](C)OC)c2c3cc(ccc31)-c1csc(n1)C[C@H](NC(=O)[C@H]1[C@@H]3COC[C@@H]31)C(=O)N1CCC[C@H](N1)C(=O)OCC(C)(C)C2 [RMC-7977]
Area under the curve (AUC) (CAL51_BREAST): 0.7618
PRISM AUC (CAL51_BREAST, KRAS WT): 0.8348
Area under the curve (AUC) (CAL54_KIDNEY): 1
PRISM AUC (CAL54_KIDNEY, KRAS WT): 0.923
Area under the curve (AUC) (CAL62_THYROID): 0.8444
Area under the curve (AUC) (CAL72_BONE): 0.8606
Area under the curve (AUC) (CAL78_BONE): 0.9047
Area under the curve (AUC) (CAL120_BREAST): 0.7959
PRISM AUC (CAL120_BREAST, KRAS WT): 0.7786
Area under the curve (AUC) (CAL148_BREAST): 1
PRISM AUC (CAL148_BREAST, KRAS WT): 0.8804
Area under the curve (AUC) (CALU1_LUNG): 0.5912
Area under the curve (AUC) (CALU6_LUNG): 0.6889
PRISM AUC (CALU6_LUNG, KRAS MUT): 0.3828
Area under the curve (AUC) (CAMA1_BREAST): 1
PRISM AUC (CAOV3_OVARY, KRAS WT): 0.5307
PRISM AUC (CAS1_CENTRAL_NERVOUS_SYSTEM, KRAS WT): 0.789
PRISM AUC (CCFSTTG1_CENTRAL_NERVOUS_SYSTEM, KRAS WT): 0.7928
PRISM AUC (CCK81_LARGE_INTESTINE, KRAS WT): 0.7557
PRISM AUC (CH157MN_CENTRAL_NERVOUS_SYSTEM, KRAS WT): 0.4312
PRISM AUC (CHAGOK1_LUNG, KRAS WT): 0.3799
PRISM AUC (CI1_HAEMATOPOIETIC_AND_LYMPHOID_TISSUE, KRAS WT): 0.9545
PRISM AUC (CJM_SKIN, KRAS WT): 0.3707
PRISM AUC (CL11_LARGE_INTESTINE, KRAS MUT): 0.3351
PRISM AUC (CL34_LARGE_INTESTINE, KRAS WT): 1
PRISM AUC (CMLT1_HAEMATOPOIETIC_AND_LYMPHOID_TISSUE, KRAS WT): 0.3476
PRISM AUC (COLO320_LARGE_INTESTINE, KRAS WT): 0.7893
PRISM AUC (COLO679_SKIN, KRAS WT): 0.8322
PRISM AUC (COLO680N_OESOPHAGUS, KRAS WT): 0.5372
PRISM AUC (COLO741_SKIN, KRAS WT): 1
PRISM AUC (COLO783_SKIN, KRAS WT): 0.781
PRISM AUC (COLO792_SKIN, KRAS WT): 0.4587
PRISM AUC (COLO800_SKIN, KRAS WT): 0.7375
PRISM AUC (CORL88_LUNG, KRAS WT): 0.4616
PRISM AUC (CORL279_LUNG, KRAS WT): 0.8633
PRISM AUC (COV318_OVARY, KRAS WT): 0.9245
PRISM AUC (COV362_OVARY, KRAS WT): 0.6165
PRISM AUC (COV434_OVARY, KRAS WT): 0.9271
PRISM AUC (COV644_OVARY, KRAS WT): 0.6171
PRISM AUC (CW2_LARGE_INTESTINE, KRAS MUT): 0.7877
PRISM AUC (DAOY_CENTRAL_NERVOUS_SYSTEM, KRAS WT): 0.5911
PRISM AUC (DBTRG05MG_CENTRAL_NERVOUS_SYSTEM, KRAS WT): 0.9778
PRISM AUC (DEL_HAEMATOPOIETIC_AND_LYMPHOID_TISSUE, KRAS WT): 0.7498
PRISM AUC (DETROIT562_UPPER_AERODIGESTIVE_TRACT, KRAS WT): 0.2977
PRISM AUC (DKMG_CENTRAL_NERVOUS_SYSTEM, KRAS WT): 0.9016
PRISM AUC (DMS53_LUNG, KRAS WT): 0.8431
PRISM AUC (DMS273_LUNG, KRAS WT): 0.8256
PRISM AUC (DOHH2_HAEMATOPOIETIC_AND_LYMPHOID_TISSUE, KRAS WT): 0.6063
PRISM AUC (DU145_PROSTATE, KRAS WT): 0.668
PRISM AUC (EB1_HAEMATOPOIETIC_AND_LYMPHOID_TISSUE, KRAS WT): 0.8935
PRISM AUC (EBC1_LUNG, KRAS WT): 0.2644
PRISM AUC (ECGI10_OESOPHAGUS, KRAS WT): 0.3668
PRISM AUC (EFE184_ENDOMETRIUM, KRAS WT): 0.6221
PRISM AUC (EFM19_BREAST, KRAS WT): 1
PRISM AUC (EFM192A_BREAST, KRAS WT): 0.9097
PRISM AUC (EFO21_OVARY, KRAS WT): 0.6828
PRISM AUC (EFO27_OVARY, KRAS WT): 0.6261
PRISM AUC (EKVX_LUNG, KRAS WT): 0.4183
PRISM AUC (EOL1_HAEMATOPOIETIC_AND_LYMPHOID_TISSUE, KRAS WT): 0.2206
PRISM AUC (ES2_OVARY, KRAS WT): 0.8337
PRISM AUC (ESS1_ENDOMETRIUM, KRAS WT): 0.6047
PRISM AUC (EW8_BONE, KRAS WT): 0.8525
PRISM AUC (EWS502_BONE, KRAS WT): 0.6179
PRISM AUC (FADU_UPPER_AERODIGESTIVE_TRACT, KRAS WT): 0.4703
PRISM AUC (FTC133_THYROID, KRAS WT): 0.5606
PRISM AUC (FTC238_THYROID, KRAS WT): 0.9927
PRISM AUC (G292CLONEA141B1_BONE, KRAS WT): 0.598
PRISM AUC (G361_SKIN, KRAS WT): 0.8708
PRISM AUC (G401_SOFT_TISSUE, KRAS WT): 0.7823
PRISM AUC (G402_SOFT_TISSUE, KRAS WT): 0.7763
PRISM AUC (GAMG_CENTRAL_NERVOUS_SYSTEM, KRAS WT): 0.6238
Area under the curve (AUC) (GCIY_STOMACH): 0.7784
PRISM AUC (GCIY_STOMACH, KRAS WT): 0.4885
Area under the curve (AUC) (GCT27_TESTIS): 0.6893
Area under the curve (AUC) (GCT_SOFT_TISSUE): 0.8913
PRISM AUC (GCT_SOFT_TISSUE, KRAS WT): 0.9917
Area under the curve (AUC) (GI1_CENTRAL_NERVOUS_SYSTEM): 0.71
PRISM AUC (GI1_CENTRAL_NERVOUS_SYSTEM, KRAS WT): 0.5906
Area under the curve (AUC) (GIMEN_AUTONOMIC_GANGLIA): 0.7996
Area under the curve (AUC) (GOS3_CENTRAL_NERVOUS_SYSTEM): 0.7797
PRISM AUC (GOS3_CENTRAL_NERVOUS_SYSTEM, KRAS WT): 0.6594
Area under the curve (AUC) (GP2D_LARGE_INTESTINE): 0.6618
Area under the curve (AUC) (GP5D_LARGE_INTESTINE): 0.6949
Area under the curve (AUC) (GRANTA519_HAEMATOPOIETIC_AND_LYMPHOID_TISSUE): 0.8485
PRISM AUC (GRANTA519_HAEMATOPOIETIC_AND_LYMPHOID_TISSUE, KRAS WT): 0.7936
Area under the curve (AUC) (GSS_STOMACH): 0.6723
PRISM AUC (GSS_STOMACH, KRAS WT): 0.6501
Area under the curve (AUC) (GSU_STOMACH): 0.3277
Area under the curve (AUC) (H4_CENTRAL_NERVOUS_SYSTEM): 0.8134
PRISM AUC (H4_CENTRAL_NERVOUS_SYSTEM, KRAS WT): 0.7582
Area under the curve (AUC) (H103_UPPER_AERODIGESTIVE_TRACT): 0.579
Area under the curve (AUC) (H157_UPPER_AERODIGESTIVE_TRACT): 0.5372
Area under the curve (AUC) (H357_UPPER_AERODIGESTIVE_TRACT): 0.4268
Area under the curve (AUC) (H376_UPPER_AERODIGESTIVE_TRACT): 0.5899
Area under the curve (AUC) (H413_UPPER_AERODIGESTIVE_TRACT): 0.5897
Area under the curve (AUC) (HA1E_KIDNEY): 0.832
Area under the curve (AUC) (HAC2_OVARY): 0.6861
Area under the curve (AUC) (HARA_LUNG): 0.5733
PRISM AUC (HARA_LUNG, KRAS WT): 0.5091
Area under the curve (AUC) (HCA1_CERVIX): 0.7682
Area under the curve (AUC) (HCC15_LUNG): 0.7361
PRISM AUC (HCC15_LUNG, KRAS WT): 0.5149
Area under the curve (AUC) (HCC33_LUNG): 1
Area under the curve (AUC) (HCC38_BREAST): 0.8353
PRISM AUC (HCC38_BREAST, KRAS WT): 0.8722
Area under the curve (AUC) (HCC44_LUNG): 0.5509
Area under the curve (AUC) (HCC56_LARGE_INTESTINE): 0.3355
Area under the curve (AUC) (HCC78_LUNG): 0.6092
PRISM AUC (HCC78_LUNG, KRAS WT): 0.501
Area under the curve (AUC) (HCC95_LUNG): 0.5848
PRISM AUC (HCC95_LUNG, KRAS WT): 0.339
Area under the curve (AUC) (HCC515_LUNG): 0.9075
Area under the curve (AUC) (HCC827_LUNG): 0.6413
PRISM AUC (HCC827_LUNG, KRAS WT): 0.517
Area under the curve (AUC) (HCC1143_BREAST): 0.6464
PRISM AUC (HCC1143_BREAST, KRAS WT): 0.393
Area under the curve (AUC) (HCC1195_LUNG): 0.5883
PRISM AUC (HCC1195_LUNG, KRAS WT): 0.6546
